Results on one substance are retold here after doi:10.1101/2020.11.16.384271.

By UniProt entry, the sequences of proteins in these tests, tags left out. Residues count along the entry.
UniProt P52948, residues 1-880: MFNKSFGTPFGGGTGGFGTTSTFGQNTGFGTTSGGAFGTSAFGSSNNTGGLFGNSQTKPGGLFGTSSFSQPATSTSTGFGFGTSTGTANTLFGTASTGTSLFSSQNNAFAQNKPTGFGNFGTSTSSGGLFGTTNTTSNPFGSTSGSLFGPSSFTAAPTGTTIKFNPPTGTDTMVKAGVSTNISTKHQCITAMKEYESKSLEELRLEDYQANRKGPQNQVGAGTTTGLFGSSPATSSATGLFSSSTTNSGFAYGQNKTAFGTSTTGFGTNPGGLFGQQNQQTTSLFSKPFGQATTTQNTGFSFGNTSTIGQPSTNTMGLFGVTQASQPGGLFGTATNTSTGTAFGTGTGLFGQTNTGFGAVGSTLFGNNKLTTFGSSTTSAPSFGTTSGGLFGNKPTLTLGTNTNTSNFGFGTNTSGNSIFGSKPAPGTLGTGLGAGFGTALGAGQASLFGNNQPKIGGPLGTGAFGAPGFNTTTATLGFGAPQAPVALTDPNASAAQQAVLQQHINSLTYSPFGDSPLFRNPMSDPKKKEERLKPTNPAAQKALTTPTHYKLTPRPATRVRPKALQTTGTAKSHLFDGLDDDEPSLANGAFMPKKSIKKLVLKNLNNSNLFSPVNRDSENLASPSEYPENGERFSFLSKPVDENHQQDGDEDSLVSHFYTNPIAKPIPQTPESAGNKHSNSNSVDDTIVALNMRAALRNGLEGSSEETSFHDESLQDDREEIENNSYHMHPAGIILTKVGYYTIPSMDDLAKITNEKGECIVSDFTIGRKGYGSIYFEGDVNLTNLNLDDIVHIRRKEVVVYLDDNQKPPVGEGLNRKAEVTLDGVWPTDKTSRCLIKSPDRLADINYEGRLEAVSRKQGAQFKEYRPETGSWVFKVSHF
UniProt P67809: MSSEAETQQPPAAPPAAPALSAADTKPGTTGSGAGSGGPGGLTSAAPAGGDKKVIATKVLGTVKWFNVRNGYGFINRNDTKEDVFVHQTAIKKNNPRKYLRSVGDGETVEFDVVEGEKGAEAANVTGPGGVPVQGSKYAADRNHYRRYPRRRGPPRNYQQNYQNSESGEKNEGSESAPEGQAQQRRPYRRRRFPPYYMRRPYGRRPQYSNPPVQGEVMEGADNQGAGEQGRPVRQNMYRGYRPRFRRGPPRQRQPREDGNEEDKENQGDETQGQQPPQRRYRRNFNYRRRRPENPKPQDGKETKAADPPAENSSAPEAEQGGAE

The target of this test is endogenous NUP98 (Nucleoporin 98) (human (endogenous in HL-60)) (UniProt P52948). Nature of the test: affinity purification with mass spectrometry.

No constants are given. Whether binding was seen depends on the method and setting. In cells and extracts the contact can be indirect. A yes stands for co-enrichment or nearness to the bait. Other partners may have been found.

In the case of YBX1 (from UniProt P67809 1-324), the binding result is given as “binds”.
